Earlier results as cited in patent US20110229902A1, “METHOD FOR DETERMINING THE […] OF FUNGI AND YEASTS, IN PARTICULAR OF A[…]” (STICHTING TER B[…] DE FARMACODYNAMIEK, priority 2008, published 2011).
At least one compound was matched to its structure with a doubt left.

Columns and labels:
Parameters in all cases: key: R = resistant; S = sensitive
[1] = system: Aspergillus fumigatus cyp51A G138C; conditions: A. fumigatus isolate with cyp51A mutation G138C
[2] = system: Aspergillus fumigatus cyp51A M220X; conditions: A. fumigatus isolate with cyp51A mutation M220X
[3] = system: Aspergillus fumigatus cyp51A G54X; conditions: A. fumigatus isolate with cyp51A mutation G54X
[4] = system: Aspergillus fumigatus cyp51A G54W; conditions: A. fumigatus isolate with cyp51A mutation G54W
[5] = system: Aspergillus fumigatus cyp51A L98H + TR; conditions: A. fumigatus isolate with cyp51A L98H + TR (tandem repeat in promoter)

Measured: resistance status (resistant or sensitive)

CCC(C)n1ncn(-c2ccc(N3CCN(c4ccc(OCC5COC(Cn6cncn6)(c6ccc(Cl)cc6Cl)O5)cc4)CC3)cc2)c1=O (centres unmarked) [Itraconazole]
R: all assays above
